From patent WO2010106812A1

Biological target: soluble recombinant human IL-6 receptor (human)
Assay: Biacore affinity as referred to in the discussion of the monkey study

B1: Fv5-M83 (antibody, human IgG1, kappa, V domains shown)
VH: QVQLQESGPGLVKPSETLSLTCAVSGYSISDDHAVSWVRQPPGEGLEWIGFISYSGITNYNPTLQDRVTISRDNSKNTLYLQMNSLRAEDTAVYYCARLLARATAMDVWGEGTLVTVSS
VL: DIQMTQSPSSLSASVGDSVTITCQASQDISSYLNWYQQKPGKAPELLIYYGSELESGVPSRFSGSGSGTDFTFTISSLEAEDAATYYCGQGNRLPYTFGQGTKVEIER
  binding: binds

Results are given in words; binding and its absence hold for the method and conditions named. A result given as binding can be weak or reduced; the word gives no strength.
